This assay deals with SFB-RIP1 (UniProt Q13546). As to the kind of experiment: affinity purification with mass spectrometry; SFB-RIP1 transiently expressed in HEK293T; lysate on streptavidin Sepharose 4 h 4°C, biotin elution, then S-protein agarose overnight 4°C; nano-LC-MS/MS.

Protein sequences, listed by entry. Tags and fused reporters are not part of them.
UniProt Q13546: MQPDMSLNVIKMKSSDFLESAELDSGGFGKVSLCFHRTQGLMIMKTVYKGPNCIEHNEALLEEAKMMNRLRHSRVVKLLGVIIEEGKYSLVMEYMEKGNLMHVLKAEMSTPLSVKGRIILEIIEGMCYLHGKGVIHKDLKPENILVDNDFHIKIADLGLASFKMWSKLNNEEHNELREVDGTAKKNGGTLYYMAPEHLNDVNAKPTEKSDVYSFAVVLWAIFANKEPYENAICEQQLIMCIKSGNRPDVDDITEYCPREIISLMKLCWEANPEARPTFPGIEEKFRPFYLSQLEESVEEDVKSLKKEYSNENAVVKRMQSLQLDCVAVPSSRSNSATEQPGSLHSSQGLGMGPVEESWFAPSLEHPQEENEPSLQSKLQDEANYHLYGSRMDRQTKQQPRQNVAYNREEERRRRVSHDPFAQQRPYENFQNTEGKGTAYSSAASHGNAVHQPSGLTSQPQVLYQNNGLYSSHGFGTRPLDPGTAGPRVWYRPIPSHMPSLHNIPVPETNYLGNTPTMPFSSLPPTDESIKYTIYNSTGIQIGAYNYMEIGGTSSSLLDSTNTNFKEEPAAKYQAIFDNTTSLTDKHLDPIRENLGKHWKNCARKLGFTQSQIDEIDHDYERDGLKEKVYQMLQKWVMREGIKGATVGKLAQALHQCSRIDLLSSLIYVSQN

No constants are given. Whether binding was seen depends on the method and setting. Binding seen in cells or lysates may run through a third protein. A yes stands for co-enrichment or nearness to the bait. Other partners may have been found.

B1: TAK1-binding protein 2, endogenous in HEK293T (protein, UniProt Q9NYJ8 1-693)
chain: MAQGSHQIDFQVLHDLRQKFPEVPEVVVSRCMLQNNNNLDACCAVLSQESTRYLYGEGDLNFSDDSGISGLRNHMTSLNLDLQSQNIYHHGREGSRMNGSRTLTHSISDGQLQGGQSNSELFQQEPQTAPAQVPQGFNVFGMSSSSGASNSAPHLGFHLGSKGTSSLSQQTPRFNPIMVTLAPNIQTGRNTPTSLHIHGVPPPVLNSPQGNSIYIRPYITTPGGTTRQTQQHSGWVSQFNPMNPQQVYQPSQPGPWTTCPASNPLSHTSSQQPNQQGHQTSHVYMPISSPTTSQPPTIHSSGSSQSSAHSQYNIQNISTGPRKNQIEIKLEPPQRNNSSKLRSSGPRTSSTSSSVNSQTLNRNQPTVYIAASPPNTDELMSRSQPKVYISANAATGDEQVMRNQPTLFISTNSGASAASRNMSGQVSMGPAFIHHHPPKSRAIGNNSATSPRVVVTQPNTKYTFKITVSPNKPPAVSPGVVSPTFELTNLLNHPDHYVETENIQHLTDPTLAHVDRISETRKLSMGSDDAAYTQALLVHQKARMERLQRELEIQKKKLDKLKSEVNEMENNLTRRRLKRSNSISQIPSLEEMQQLRSCNRQLQIDIDCLTKEIDLFQARGPHFNPSAIHNFYDNIGFVGPVPPKPKDQRSIIKTPKTQDTEDDEGAQWNCTACTFLNHPALIRCEQCEMPRHF
B1: the binding result is “binds”.

B2: HSPA13, endogenous in HEK293T (protein, UniProt P48723 23-471)
chain: QQYLPLPTPKVIGIDLGTTYCSVGVFFPGTGKVKVIPDENGHISIPSMVSFTDNDVYVGYESVELADSNPQNTIYDAKRFIGKIFTAEELEAEIGRYPFKVLNKNGMVEFSVTSNETITVSPEYVGSRLLLKLKEMAEAYLGMPVANAVISVPAEFDLKQRNSTIEAANLAGLKILRVINEPTAAAMAYGLHKADVFHVLVIDLGGGTLDVSLLNKQGGMFLTRAMSGNNKLGGQDFNQRLLQYLYKQIYQTYGFVPSRKEEIHRLRQAVEMVKLNLTLHQSAQLSVLLTVEEQDRKEPHSSDTELPKDKLSSADDHRVNSGFGRGLSDKKSGESQVLFETEISRKLFDTLNEDLFQKILVPIQQVLKEGHLEKTEIDEVVLVGGSTRIPRIRQVIQEFFGKDPNTSVDPDLAVVTGVAIQAGIDGGSWPLQVSALEIPNKHLQKTNFN
Turning to B2, the binding result was “binds”.

The record behind these values is paper PMC8494447.
